PubChem BioAssay AID1259405 – NCATS, 2018
The whole screen tested about 50,000 reagents; shown is an unselected part. About 4,000 of them (8%) were called active. 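Mouse siRNA library applied to hamster cells; one well for each siRNA.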 Unmarked entries are inactive. The numbers tell different reagents against one gene apart.

- Purpose: 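Knock-downs that lift recombinant protein yield in hamster ovary cells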 (primary screen)
- Cells: Chinese hamster CHO-K1 ovary cells with stable secreted eGFP expression
- Reagents: single siRNA against mouse genes, 0.8 pmol siRNA per well (2 µl of 400 nM stock)
- Duration: 3 days
- Measured: 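Per-well intracellular GFP measured by laser scanning cytometry, plus viability from ATP luminescence, each relative to plate median of non-targeting control wells, in %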
- Reading the numbers: GFP, % of control: higher = more GFP per well, higher productivity; viability (ATP), % of control: higher = more viable cells (more ATP)
- Rule for the call: 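Called active when intracellular GFP, relative to negative control, is at or above 120%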

Depletion of Als2cl #1 came out at: GFP, % of control 80.5; viability (ATP), % of control 77.8.
Als2cl #2 showed GFP, % of control 73.4; viability (ATP), % of control 89.8.
With knock-down of Als2cl #3, the screen gave GFP, % of control 76.8; viability (ATP), % of control 86.2.
Ppp1r2 #1 scored GFP, % of control 62.9; viability (ATP), % of control 81.1.
Silencing of Ppp1r2 #2 gave: GFP, % of control 87.7; viability (ATP), % of control 80.5.
After knock-down of Ppp1r2 #3, the record shows GFP, % of control 76.8; viability (ATP), % of control 75.2.
Against Hsd3b5 #1, the values are GFP, % of control 43.8; viability (ATP), % of control 42.4.
Hsd3b5 #2 showed GFP, % of control 61.1; viability (ATP), % of control 35.8.
For Hsd3b5 #3, the values are GFP, % of control 101; viability (ATP), % of control 98.
Knock-down of Tafa4 #1 came out at: GFP, % of control 86.5; viability (ATP), % of control 63.2.
Knock-down of Tafa4 #2 resulted in: GFP, % of control 74.4; viability (ATP), % of control 87.9.
After knock-down of Tafa4 #3, the record shows GFP, % of control 123 (active); viability (ATP), % of control 119.
Rdh11 #1 gave GFP, % of control 94.1; viability (ATP), % of control 80.9.
Knock-down of Rdh11 #2 resulted in: GFP, % of control 46.6; viability (ATP), % of control 78.7.
For Rdh11 #3 the deposit lists GFP, % of control 87.1; viability (ATP), % of control 85.1.
With knock-down of Or14a256 #1 the results were GFP, % of control 52.3; viability (ATP), % of control 49.1.
Depletion of Or14a256 #2 gave: GFP, % of control 85.5; viability (ATP), % of control 61.6.
Against Or14a256 #3 the deposit lists GFP, % of control 56.6; viability (ATP), % of control 86.4.
